Test results as given in PubChem BioAssay AID248 (DTP/NCI, 2004).
The list does not hold the whole screen: it gathers tests that were run many times, whatever their T/C, doses with no T/C, and many T/C values between a quarter and a half above the control. Other doses and runs of a compound stand elsewhere. T/C is the treated group as % of the vehicle group. Some doses have a count of surviving animals in place of a T/C: the source files T/C as zero there, which appears to mark a toxic dose or a test without result, not a measured value. Some survivor counts are full or nearly so, which does not show that the dose was tolerated: survival well below the control is almost never listed, so the zero probably covers shortened survival too. Counts of survivors are from the toxicity check (mostly the fifth day) where no day follows; animals may have died later. Schedules are NCI's codes, taken here to give the interval after Q, in days (D) or hours (H), and the number of doses after X. Some schedule codes hold Z or #, which are not explained here. Where survival is the endpoint, this PubChem deposit counts one and a half times the control or more as active, and values a quarter to a half above the control carry no call in these data; other NCI protocols may use other cut-offs. Some entries were tested several times; their values stand side by side, smallest first. Brackets with × count equal records among those shown. Some T/C values are followed by the survivors on the day toxicity was checked, most often the fifth; without a count, all were alive then.

Test system: L1210 leukemia ip in BDF1 mice, survival T/C
Assay: NCI In Vivo Anticancer Drug Screen. Data for tumor model L1210 Leukemia (intraperitoneal) in B6D2F1 (BDF1) mice
Details: higher T/C = longer survival

CC[C@]1(O)C[C@H]2CN(CCc3c([nH]c4ccccc34)[C@@](C(=O)OC)(c3cc4c(cc3OC)N(C=O)[C@H]3[C@@](O)(C(=O)OC)[C@H](OC(C)=O)[C@]5(CC)C=CCN6CC[C@]43[C@@H]65)C2)C1
T/C (T/C endpoint: mean survival time, dose: 62.5 micrograms/kg/injection, schedule: Q03HX024 (ip), vehicle: clinical formulation): 131 % of control | T/C (T/C endpoint: mean survival time, dose: 95.0 micrograms/kg/injection, schedule: Q01DX009 (ip), vehicle: saline): 109, 117, 126, 132 % of control | T/C (T/C endpoint: mean survival time, dose: 125.0 micrograms/kg/injection, schedule: Q03HX024 (ip), vehicle: clinical formulation): 133 % of control | T/C (T/C endpoint: mean survival time, dose: 190.0 micrograms/kg/injection, schedule: Q01DX009 (ip), vehicle: saline): 129 (2×), 130, 132 % of control | T/C (T/C endpoint: mean survival time, dose: 250.0 micrograms/kg/injection, schedule: Q01DX009 (ip), vehicle: clinical formulation): 145 % of control | T/C (T/C endpoint: mean survival time, dose: 250.0 micrograms/kg/injection, schedule: Q03HX008 (ip), vehicle: clinical formulation): 127 % of control | T/C (T/C endpoint: mean survival time, dose: 250.0 micrograms/kg/injection, schedule: Q03HX016 (ip), vehicle: clinical formulation): 141 % of control | T/C (T/C endpoint: mean survival time, dose: 360.0 micrograms/kg/injection, schedule: Q04DX003 (ip), vehicle: saline): 126 % of control | T/C (T/C endpoint: mean survival time, dose: 370.0 micrograms/kg/injection, schedule: Q01DX009 (ip), vehicle: saline): 102, 133, 135, 164 % of control | T/C (T/C endpoint: mean survival time, dose: 500.0 micrograms/kg/injection, schedule: Q01DX009 (ip), vehicle: clinical formulation): 131 % of control | T/C (T/C endpoint: mean survival time, dose: 500.0 micrograms/kg/injection, schedule: Q03HX008 (ip), vehicle: clinical formulation): 132 % of control [9 of 10 alive] | T/C (T/C endpoint: mean survival time, dose: 500.0 micrograms/kg/injection, schedule: Q03HX016 (ip), vehicle: clinical formulation): 131 % of control [9 of 10 alive] | T/C (T/C endpoint: mean survival time, dose: 1000.0 micrograms/kg/injection, schedule: Q04DX003 (ip), vehicle: clinical formulation): 131 % of control | T/C (T/C endpoint: mean survival time, dose: 2000.0 micrograms/kg/injection, schedule: Q04DX003 (ip), vehicle: clinical formulation): 147 % of control | T/C (T/C endpoint: mean survival time, dose: 4000.0 micrograms/kg/injection, schedule: Q08DX002 (ip), vehicle: clinical formulation): 134 % of control | T/C (T/C endpoint: median survival time, dose: 0.05 mg/kg/injection, schedule: Q01DX009 (ip), vehicle: water): 131 % of control | T/C (T/C endpoint: median survival time, dose: 0.1 mg/kg/injection, schedule: Q01DX001 (ip), vehicle: water, evaluated on day 5): 107 and 108 % of control | T/C (T/C endpoint: median survival time, dose: 0.1 mg/kg/injection, schedule: Q01DX001 (ip), vehicle: water, evaluated on day 30): 107 % of control | T/C (T/C endpoint: median survival time, dose: 0.1 mg/kg/injection, schedule: Q01DX001 (ip), vehicle: water, evaluated on day 31): 108 % of control | T/C (T/C endpoint: median survival time, dose: 0.1 mg/kg/injection, schedule: Q01DX009 (ip), vehicle: water): 131 % of control | T/C (T/C endpoint: median survival time, dose: 0.12 mg/kg/injection, schedule: Q01DX009 (ip), vehicle: water): 125 % of control | T/C (T/C endpoint: median survival time, dose: 0.2 mg/kg/injection, schedule: Q01DX001 (ip), vehicle: water, evaluated on day 5): 114 and 117 % of control | T/C (T/C endpoint: median survival time, dose: 0.2 mg/kg/injection, schedule: Q01DX001 (ip), vehicle: water, evaluated on day 30): 117 % of control | T/C (T/C endpoint: median survival time, dose: 0.2 mg/kg/injection, schedule: Q01DX001 (ip), vehicle: water, evaluated on day 31): 114 % of control | T/C (T/C endpoint: median survival time, dose: 0.2 mg/kg/injection, schedule: Q01DX009 (ip), vehicle: water, evaluated on day 5): 133 % of control | T/C (T/C endpoint: median survival time, dose: 0.2 mg/kg/injection, schedule: Q01DX009 (ip), vehicle: water, evaluated on day 30): 127 % of control | T/C (T/C endpoint: median survival time, dose: 0.4 mg/kg/injection, schedule: Q01DX001 (ip), vehicle: water, evaluated on day 5): 117 and 119 % of control | T/C (T/C endpoint: median survival time, dose: 0.4 mg/kg/injection, schedule: Q01DX001 (ip), vehicle: water, evaluated on day 30): 119 % of control | T/C (T/C endpoint: median survival time, dose: 0.4 mg/kg/injection, schedule: Q01DX001 (ip), vehicle: water, evaluated on day 31): 117 % of control | T/C (T/C endpoint: median survival time, dose: 0.5 mg/kg/injection, schedule: Q01DX001 (ip), vehicle: saline): 125 % of control | T/C (T/C endpoint: median survival time, dose: 0.5 mg/kg/injection, schedule: Q01DX002 (ip), vehicle: water, evaluated on day 5): 126 % of control | T/C (T/C endpoint: median survival time, dose: 0.5 mg/kg/injection, schedule: Q01DX002 (ip), vehicle: water, evaluated on day 20): 126 % of control | survivor count (T/C endpoint: median survival time, dose: 0.5 mg/kg/injection, schedule: Q01DX009 (ip), vehicle: water): 6 of 8 | T/C (T/C endpoint: median survival time, dose: 0.5 mg/kg/injection, schedule: Q## X001 (ip), vehicle: saline): 125 % of control | survivor count (T/C endpoint: median survival time, dose: 0.8 mg/kg/injection, schedule: Q01DX009 (ip), vehicle: water): 5 of 8 | T/C (T/C endpoint: median survival time, dose: 1.0 mg/kg/injection, schedule: Q01DX001 (ip), vehicle: saline): 128 and 131 % of control | T/C (T/C endpoint: median survival time, dose: 1.0 mg/kg/injection, schedule: Q01DX002 (ip), vehicle: water, evaluated on day 5): 133 % of control | T/C (T/C endpoint: median survival time, dose: 1.0 mg/kg/injection, schedule: Q01DX002 (ip), vehicle: water, evaluated on day 20): 133 % of control | survivor count (T/C endpoint: median survival time, dose: 1.0 mg/kg/injection, schedule: Q01DX009 (ip), vehicle: water): 3 of 8 | T/C (T/C endpoint: median survival time, dose: 1.0 mg/kg/injection, schedule: Q## X001 (ip), vehicle: saline): 128 % of control | T/C (T/C endpoint: median survival time, dose: 1.6 mg/kg/injection, schedule: Q01DX001 (ip), vehicle: water, evaluated on day 5): 130 % of control | T/C (T/C endpoint: median survival time, dose: 1.6 mg/kg/injection, schedule: Q01DX001 (ip), vehicle: water, evaluated on day 30): 130 % of control | survivor count (T/C endpoint: median survival time, dose: 2.0 mg/kg/injection, schedule: Q01DX009 (ip), vehicle: water): 1 of 8 | T/C (T/C endpoint: median survival time, dose: 4.0 mg/kg/injection, schedule: Q01DX001 (ip), vehicle: saline): 141 % of control | T/C (T/C endpoint: median survival time, dose: 4.0 mg/kg/injection, schedule: Q01DX001 (ip), vehicle: water, evaluated on day 5): 129 % of control | T/C (T/C endpoint: median survival time, dose: 4.0 mg/kg/injection, schedule: Q01DX001 (ip), vehicle: water, evaluated on day 20): 129 % of control | survivor count (T/C endpoint: median survival time, dose: 4.0 mg/kg/injection, schedule: Q01DX002 (ip), vehicle: water): 3 of 8 | T/C (T/C endpoint: median survival time, dose: 4.0 mg/kg/injection, schedule: Q## X001 (ip), vehicle: saline): 141 % of control | survivor count (T/C endpoint: median survival time, dose: 8.0 mg/kg/injection, schedule: Q01DX001 (ip), vehicle: water): 7 of 8 | survivor count (T/C endpoint: median survival time, dose: 8.0 mg/kg/injection, schedule: Q## X001 (ip), vehicle: saline): 9 of 10
